At least one peptide structure holds a part that was inferred or is arguable (an end, a ring closure or a residue).
How the values were obtained:
[1] = target: kidney membrane fraction; test: Binding between sugar-modified AVPs and membrane fractions of organs, Scatchard analysis (Test 3); settings: for Kd: ^3H-labeled derivative, on ice, Scatchard analysis, read-out: dissociation constant
[2] = target: kidney membrane fraction; test: Inhibition of binding of ^3H-Glc-O-C8-AVP to kidney membrane fraction (Test 4); settings: ^3H-Glc-O-C8-AVP 20 pmol/ml, kidney membrane fraction 1 mg/ml, on ice 10 min
Protocol: A membrane fraction was prepared by the method of Stassen F.L. et al. (J. Pharm. Exp. Thera., 223, 50-54, 1982). An experiment on binding was carried out as follows. The membrane fraction prepared above, together with the ^3H-labeled derivative, was incubated in physiological phosphate buffer on ice, followed by ultracentrifugation. The bound product obtained as the sediment by the ultracentrifugation was counted.
The inhibitory activity of segmental structures of Glc-O-C8-AVP and the like against binding ^3H-Glc-O-C8-AVP (20 pmol/ml) to the kidney membrane fraction (1 mg/ml) (incubation on ice for 10 min) was studied.

N=C(N)NCCC[C@H](NC(=O)[C@@H]1CCCN1C(=O)[C@@H]1CSSC[C@H](NC(=O)CCCCCCCCO[C@H]2C[C@@H](O)[C@H](O)[C@@H](CO)O2)C(=O)N[C@@H](Cc2ccc(O)cc2)C(=O)N[C@@H](Cc2ccccc2)C(=O)N[C@@H](CCC(N)=O)C(=O)N[C@@H](CC(N)=O)C(=O)N1)C(=O)NCC(N)=O [2dGlc-O-C8-AVP]
Kd [1]: 28 nM

N=C(N)NCCC[C@H](NC(=O)[C@@H]1CCCN1C(=O)[C@@H]1CSSC[C@H](NC(=O)CCCCCCCCO[C@@H]2O[C@H](CO)[C@@H](O)[C@H](O)[C@H]2O)C(=O)N[C@@H](Cc2ccc(O)cc2)C(=O)N[C@@H](Cc2ccccc2)C(=O)N[C@@H](CCC(N)=O)C(=O)N[C@@H](CC(N)=O)C(=O)N1)C(=O)NCC(N)=O [Glc-O-C8-AVP]
Kd [1]: 55 nM | IC50 [2]: 75 nM

N=C(N)NCCC[C@H](NC(=O)[C@@H]1CCCN1C(=O)[C@@H]1CSSC[C@H](NC(=O)CCCCCCCCS[C@@H]2O[C@H](CO)[C@@H](O)[C@H](O)[C@H]2O)C(=O)N[C@@H](Cc2ccc(O)cc2)C(=O)N[C@@H](Cc2ccccc2)C(=O)N[C@@H](CCC(N)=O)C(=O)N[C@@H](CC(N)=O)C(=O)N1)C(=O)NCC(N)=O [Glc-S-C8-AVP]
Kd [1]: 8.6 nM | binding activity relative to the Glc-O-C8- derivative ([1]; from dissociation constants 8.6 nM and 55 nM): about 6 times

N=C(N)NCCC[C@H](NC(=O)[C@@H]1CCCN1C(=O)[C@@H]1CSSC[C@H](NC(=O)CCCCCCCCO[C@@H]2O[C@H](CO)[C@@H](O)[C@H](O)[C@@H]2O)C(=O)N[C@@H](Cc2ccc(O)cc2)C(=O)N[C@@H](Cc2ccccc2)C(=O)N[C@@H](CCC(N)=O)C(=O)N[C@@H](CC(N)=O)C(=O)N1)C(=O)NCC(N)=O [Man-O-C8-AVP]
Kd [1]: 14 nM

— patent publication EP0953357A1, “NEPHROTROPIC DRUGS” (Drug Delivery System Institute, Ltd., priority 1997, dated 1998)
